Positions count from the first letter of the chain named. These are yes or no findings as the source states them, for the method shown. Some results given as binding are weak or reduced against the parent protein; the word gives no strength.
B1: PA13P1H08 variant rCDR1-N (antibody, human IgG1, V domains shown)
VH: QVQLVNSGGGVVQPGRSLRLSCVASGFTFSSYGIHWVRQAPGKGLEWVAVISNDGEKSESADSVKGRFTPSRDNSKNTVYLQMNNLRVEDTAVYYCAKVLDYSRYSYYYGMDVWGQGTTVIVSS
VL: EIVLTQSPGTLSLSPGGRGTLSCRTSQTINNAHLAWYQHKPGQAPRLLIYGSSERATGVPDRFSGSGSGSDFTLTISSLEAEDFAVYYCQHYGRSPPYTFGPGTKLDIK
B2: PA13P1H08 variant rFWRs-N (antibody, human IgG1, V domains shown)
VH: QVQLVESGGGVVQPGRSLRLSCAASGFTFSTFGMHWVRQAPGKGLEWVAVISNDGEKSYYADSVKGRFTISRDNSKNTLYLQMNSLRAEDTAVYYCAKVLDYSRYSYYYGMDVWGQGTTVTVSS
VL: B1 VL
B3: PA13P1H08 variant rCDR2-N (antibody, human IgG1, V domains shown)
VH: B1 VH with S31T, Y32F, N53Y, E56S, K57N, S58K
VL: B1 VL
B4: PA12P1C07 (antibody, human IgG1, V domains shown)
VH: QVQLEESGGGVVQPGKSLRLSCVASAFTFKRFAMHWVRQAPGKGLEWVAVISDNGLREDYEDSVKGRFTISRDNSKDTLYLQMNSLRPEDTAIYYCAKVLDYSEYSLYFGMDVWGQGTTVLVSS
VL: EIVLTQSPAILSLSPGDRATLSCRTSQTVNSNFLAWYQQKPGQAPRLLIYGASRRAIDIPDRFTGSGSGTEFTLTIARLEPEDFAVYSCQHYSDSPPYTFGQGTKLEIK
B5: PA12P3D08 (antibody, human IgG1, V domains shown)
VH: B4 VH with E5V, V23A, K30R, K76Q, D77N, S85G, P88A, I93V, S103N, L121T
VL: EVVLTQSPATLSLSPGERATLSCRTSQAISNNFLAWYQQRPGQPPRLLIYASSRRATDTPDRFTGSGSGTDFTLTITRLEPEDFAVYFCQYYSDSPPYTFGPGTKLEIK

Protein sequences, listed by entry. Tags and fused reporters are not part of them. Residues count along the entry.
UniProt P43238, residues 26-626: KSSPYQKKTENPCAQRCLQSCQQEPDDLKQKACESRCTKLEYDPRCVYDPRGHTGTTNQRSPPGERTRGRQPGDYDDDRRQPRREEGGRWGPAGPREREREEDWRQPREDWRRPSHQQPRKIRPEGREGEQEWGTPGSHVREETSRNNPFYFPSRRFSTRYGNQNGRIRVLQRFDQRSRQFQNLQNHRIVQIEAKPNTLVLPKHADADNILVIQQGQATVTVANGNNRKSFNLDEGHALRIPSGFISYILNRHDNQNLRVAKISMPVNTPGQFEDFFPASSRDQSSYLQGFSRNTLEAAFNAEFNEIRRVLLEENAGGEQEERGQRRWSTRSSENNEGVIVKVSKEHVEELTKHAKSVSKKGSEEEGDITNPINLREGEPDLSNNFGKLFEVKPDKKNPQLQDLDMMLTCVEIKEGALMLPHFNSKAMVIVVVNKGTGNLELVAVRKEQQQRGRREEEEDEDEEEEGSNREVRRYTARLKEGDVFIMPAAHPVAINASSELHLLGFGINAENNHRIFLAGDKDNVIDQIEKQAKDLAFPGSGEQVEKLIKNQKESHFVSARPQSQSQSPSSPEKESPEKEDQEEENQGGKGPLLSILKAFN

target: Ara h 1 (purified natural peanut allergen) (Arachis hypogaea) (UniProt P43238); assay: indirect ELISA, OD heat map (scale 0.0-3.0)

| binding | Binder |
| --- | --- |
| binds | B1 |
| binds | B2 |
| binds | B3 |
| binds | B4 |
| binds | B5 |

target: Ara h 1 (purified natural peanut allergen) (Arachis hypogaea) (UniProt P43238); assay: indirect ELISA

| binding | Binder |
| --- | --- |
| binds | B4 |
| binds | B5 |

Source: US20210246195A1
